# Experimental data published in the supplement of paper PMC12889115.
# The list shows a part of the results. These are raw signals, not scaled to a control.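 In the initial screen, polymyxin B was used at a concentration that permeabilizes Salmonella's outer membrane but not its inner membrane. Maximum growth was set by DMSO wells with or without polymyxin B. Since plates varied, data were ranked per plate, and compounds giving the lowest OD600 advanced as hits.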
# Tested on: Salmonella enterica serovar Typhimurium SL1344
# Experiment: bacterial growth OD600 after 18 h with compound and polymyxin B; higher = more bacterial growth (less inhibition)
# Details: 50 µM, Mueller-Hinton broth
Structure (SMILES),bacterial growth OD600 (polymyxin B 0.75 µg/mL),bacterial growth OD600 (polymyxin B 1 µg/mL)
CSCCC(=O)N(C)C(Cc1ccccc1F)C1CCN(C(=O)/C=C/c2ccccc2)CC1 (stereo not given),0.005,–
CC(C)N(C)Cc1nnnn1CC(=O)N1CCC(N2CCSCC2)CC1,–,1.01
COCCn1cnc2cc(NC(=O)C3CCCCC3)cc(C(=O)N(C)C(C)c3cccs3)c21 (stereo not given),0.707,–
Cc1ncc2c(c1CNC(=O)c1ccc3c(c1)OCO3)CCN(C(=O)CCc1c[nH]c3ccccc13)C2,0.77,–
COc1ccc(OC)c(C(=O)N2CCC(n3nccc3NC(=O)C(C)(C)C)CC2)c1,–,1.06
CC(C)(C)C(=O)N1CCC2(CCCN(Cc3cccc(F)c3F)C2=O)C1 (stereo not given),–,0.827
COc1cc(C(=O)N2CCCC(N3CCN(c4ccc(F)cc4)CC3)C2)ccc1C (stereo not given),–,0.913
CCCC1(C2CCN(C(=O)Cc3ccc(SC)cc3)CC2)NC(=O)N(CCc2ccccn2)C1=O (stereo not given),0.982,–
CNc1ccc(C(=O)N2CCC(CCn3cccn3)CC2)cn1,0.796,–
Cc1cccnc1CN1CCN(C(=O)Cn2nnnc2CN(C)C(C)C)CC1,–,0.855
CCN1CCN(CC(=O)NCc2ccc3[nH]c(C)c(C)c3c2)CC1,0.838,–
CS(=O)(=O)N1C[C@H]2OC(=O)N(CCCc3ccc(F)cc3)[C@H]2C1,0.845,–
Cc1ccc2nc(N3CCC(C(=O)N4CC5CCC4C5)CC3)nc(C)c2c1 (stereo not given),0.857,–
CCOC(=O)CNC(=O)N1CCC(C2CCN(Cc3cccnc3)CC2)C1 (stereo not given),–,1.04
Cc1ccccc1-n1ncc2c1CC(C)(C)CC2NC(=O)Cc1nonc1C (stereo not given),0.827,–
CSc1ccc(CC(=O)NCc2nc(-c3ccccc3NC(=O)C3CCC3)oc2C)cc1,0.873,–
CCC(NC(=O)c1ccc2nc(CCOC)oc2c1)c1nc2cc(C)ccc2[nH]1 (stereo not given),–,0.814
CN(C)C1(C(=O)NCc2cn3c(n2)SCC3)Cc2ccccc2C1,0.85,–
CN(Cc1cnccn1)C(=O)C1(N2CCCCC2)Cc2ccccc2C1,0.008,–
COC(=O)[C@H](Cc1ccccc1)NC1CCN(c2ccc(CC(=O)NCc3ccccc3)cc2)CC1,0.81,–
CCC(NC1CCN(c2ccc(C(=O)NC3CCCC3)cc2)CC1)c1nc2cc(C)ccc2[nH]1 (stereo not given),0.701,–
Cc1cccnc1CN(C)CC1(O)CCCN(CC2CCC2)C1=O (stereo not given),–,0.925
CN(CC1CCCN(CCc2ccc(Cl)cc2)C1)C(=O)CCC(F)(F)F (stereo not given),–,0.985
CCCN(CC1CCCO1)C(=O)c1ccc2nc(C3CCCCC3)oc2c1 (stereo not given),–,0.897
CC(C)CC(=O)Nc1ccnn1C1CCN(C(=O)C(=O)CCc2ccccc2)CC1,–,0.009
COc1ccc(CN2CCN(Cc3ccc(OC)cc3F)C(CCO)C2)cc1 (stereo not given),–,0.846
C/C=C(\C)CN1CCCC(Nc2cccc(F)c2)C1 (stereo not given),0.866,–
O=C(COc1ccccc1)N1CCC(C2CCN(c3ncccn3)CC2)C1 (stereo not given),0.75,–
O[C@@H]1CN(Cc2ccsc2)CC[C@H]1N1CCN(CCc2ccccc2)CC1,–,1.09
COc1ccc(CC2(CCC(=O)NCc3c(F)cccc3F)CCC(=O)N2)c(F)c1 (stereo not given),0.828,–

# Complete entries, looked up by structure. Order of values: bacterial growth OD600 (polymyxin B 0.75 µg/mL)	bacterial growth OD600 (polymyxin B 1 µg/mL)
# `O[C@@H]1CN(Cc2ccsc2)CC[C@H]1N1CCN(CCc2ccccc2)CC1` is listed as –	1.09
# `CC(C)N(C)Cc1nnnn1CC(=O)N1CCC(N2CCSCC2)CC1` is listed as –	1.01
